# Laboratory results as given in PubChem BioAssay AID1487 (National Center for Advancing Translational Sciences (NCATS), 2009).
# The other results are listed elsewhere or left out. Further columns of the screen follow, without active or inactive calls. The list favours compounds with an active or inconclusive main result. Potencies come from curve fits of mixed quality, noted in brackets.
# Assay: qHTS Assay for Modulators of Lamin A Splicing
# Conditions: HeLa LMNA splicing GFP/RFP minigene ratio, 48 h
# In short: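 S3 HeLa stable clones carrying a lamin A-EGFP splicing minigene plus DsRed2 were seeded at 600 cells/well in Opti-MEM with 2% FBS, pin-dosed and incubated 48 h at 37°C. Acumen cytometry (488 nm) gave the GFP/RFP total-intensity ratio.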
# [1] = measured here: GFP splicing reporter channel
# [2] = measured here: RFP viability control channel
SMILES,AC50 [1],AC50 [2]
CN1CCN(c2ccc([N+](=O)[O-])cc2C(=O)c2ccc(Br)cc2)CC1,"10 µM [falling, partial curve, poor fit]","7.94 µM [falling, partial curve]"
CCOc1cc(NC(=S)NCCCN2CCOCC2)c(OCC)cc1NC(=O)C(C)C,"12.6 µM [falling, single point]","22.4 µM [falling, partial curve]"
Cc1ccc(C)c(N(C(=O)CCC(=O)Nc2cc(C)on2)C(C(=O)NC2CCCC2)c2ccco2)c1 (configuration not stated),"15.8 µM [rising, partial curve, poor fit]","15.8 µM [rising, partial curve, poor fit]"
COc1cccc(-c2ccc3ncnc(NC4CCNCC4)c3c2)c1,,"14.1 µM [rising, single point]"
C=C(C)C1CC=C(C)/C(=N/NC(=O)c2ccoc2C)C1 (configuration not stated),,"35.5 µM [rising, single point]"
Cc1ccc2c(c1)c1c(n2CC(O)Cn2c(C)nc3ccccc32)C(=O)CCC1 (configuration not stated),,"0.794 µM [rising, partial curve]"
Nc1c(Cl)ncnc1N/N=C/c1ccccn1,,"5.01 µM [rising, full curve]"
CCOc1ccc(NC(=O)c2c(NCc3cc(OC)c(OC)cc3OC)sc3c2CCCC3)cc1,"2.24 µM [falling, single point]",
O=C(O)CSc1nc(-c2ccccc2)nc2c1oc1ccccc12,"14.1 µM [rising, single point]",
COc1cccc(CNC(=O)C(c2ccc(Cl)cc2)C(C)C)c1 (configuration not stated),"11.2 µM [rising, single point]","14.1 µM [rising, single point]"
Cc1ccc2nc(Nc3nc(-c4ccccc4)cc(=O)[nH]3)nc(C)c2c1,"12.6 µM [falling, partial curve]","15.8 µM [falling, partial curve]"
CCOc1cccc2cc(-c3nnc(NCc4ccco4)s3)c(=O)oc12,,"7.08 µM [falling, partial curve]"
COc1ccc(N2CCN(C(=O)c3cccc(Br)c3)CC2)c([N+](=O)[O-])c1,"22.4 µM [falling, partial curve, poor fit]",
O=[N+]([O-])c1cc(/C=N/Nc2nc3ccccc3[nH]2)c(O)cc1O,,"3.98 µM [rising, full curve]"
CCCC1=Nc2cc(C(=O)NC3CCCCC3)ccc2Sc2ccc(C)cc21,"0.158 µM [falling, full curve, poor fit]",
CCOC(=O)C1C(=O)Nc2nc3ccccc3n2C1C(C)C (configuration not stated),,"0.0708 µM [falling, full curve, poor fit]"
CCOC(=O)c1c(NC(=O)COc2ccccc2)sc(C(C)=O)c1C,"0.794 µM [falling, full curve, poor fit]",
CCOC(=O)N1CCC(NCCNC(=O)c2ccccc2)CC1,"6.31 µM [rising, single point]",
O=C(Nc1ccc(Cl)cc1)Nc1nnc(SCc2ccccc2)s1,,"25.1 µM [rising, single point]"

SMILES,AC50 [1],AC50 [2]
Nc1ncc(-c2ccc([N+](=O)[O-])cc2)cn1,,"20 µM [rising, single point]"
O=C(CSc1nc(=O)n(Cc2ccncc2)c2c1CCC2)Nc1cccc(F)c1,"0.0447 µM [falling, full curve, poor fit]","0.0562 µM [falling, full curve, poor fit]"
Cc1ccc(NC(=O)/C(C#N)=C/c2ccccc2C(F)(F)F)cc1,,"0.0891 µM [rising, full curve]"
O=c1cc(CSc2nnnn2-c2ccccc2)nc(Nc2ccc(F)cc2)[nH]1,,"35.5 µM [rising, single point]"
CC(=O)c1ccc(N2CCC(c3cc(-c4ccc(Cl)cc4Cl)n[nH]3)CC2)c([N+](=O)[O-])c1,,"35.5 µM [falling, single point]"
C/C(CCN1CCc2nc(-c3ccccc3)c(-c3ccccc3)cc2C1)=N\O[C@H](C)c1cn([C@H](CO)Cc2ccccc2)nn1,,"35.5 µM [rising, single point]"
O=C(Nc1nc(-c2ccccc2Cl)cs1)c1cccnc1,"12.6 µM [rising, single point]","14.1 µM [rising, single point]"
CCOC(=O)C1CCN(CCC(=O)Nc2ccc(C)cc2)CC1,,"1.58 µM [falling, partial curve, poor fit]"
CN(C)CCCN1C(=O)C(=O)/C(=C(/O)c2ccncc2)C1c1ccccc1 (configuration not stated),,"35.5 µM [rising, single point]"
CC(=O)Nc1ccc(Cc2ccc3[nH]c(=O)cc(C)c3c2)cc1,"15.8 µM [falling, partial curve, poor fit]",
C/C(=N\NC(=O)CSc1ncccn1)c1ccc2c(c1)OCCO2,"0.282 µM [falling, full curve, poor fit]","0.447 µM [falling, full curve, poor fit]"
Cc1ccc(NC(=S)NNC(=O)c2ccccc2O)c(C)c1,,"4.47 µM [rising, full curve]"
CCCN1CCCc2cc(CN(CCCN3CCOCC3)C(=O)Nc3ccc(Cl)c(Cl)c3)ccc21,,"0.1 µM [falling, full curve, poor fit]"
Cc1cc(C)cc(-n2c(SCC(=O)Nc3ccc4c(c3)OCO4)nc3c([nH]c4ccccc43)c2=O)c1,,"7.94 µM [falling, full curve]"
O=C(Nc1nnc(SCc2ccccc2)s1)c1cccc([N+](=O)[O-])c1,"17.8 µM [rising, single point]","25.1 µM [rising, single point]"
COc1ccc2sc(N(Cc3cccnc3)C(=O)CCc3ccccc3)nc2c1,"12.6 µM [falling, partial curve]",
Cc1onc(-c2ccccc2)c1C(=O)NNC(=S)NC(=O)c1ccc(F)cc1,,"12.6 µM [rising, single point]"
CCOC(=O)c1c(S(=O)(=O)N2CCC(C(=O)NCc3ccccc3Cl)CC2)c(C)n(C)c1C,"0.00501 µM [falling, full curve, poor fit]","3.55 µM [falling, partial curve, poor fit]"
CCn1c(SCC(=O)Nc2cc(C(C)(C)C)nn2-c2ccccc2)nnc1-c1cccs1,"35.5 µM [rising, single point]","35.5 µM [rising, single point]"

SMILES,AC50 [1],AC50 [2]
Cc1cccc(N2CCN(C(=O)c3cnn(-c4ccccc4)c3C3CCN(C(=O)OC(C)(C)C)CC3)CC2)c1C,,"35.5 µM [rising, single point]"
CCN(CC)c1ccc(/C=C(\C#N)c2nc(-c3cccs3)c(NC(C)=O)s2)cc1,"3.55 µM [falling, partial curve, poor fit]","2.82 µM [falling, single point]"
CC(c1cc2ccccc2s1)N(O)C(N)=O (configuration not stated),"0.794 µM [falling, single point]",
NS(=O)(=O)c1ccc(CCNCc2cc(Br)ccc2OCc2ccccc2)cc1,"11.2 µM [rising, partial curve, poor fit]","22.4 µM [rising, partial curve]"
C=C1CCC2C(CC2(C)C)C(=C)CC/C1=N/O (configuration not stated),"5.01 µM [rising, single point]",
CNc1nc(-c2ccoc2)nc2ccccc12,"11.2 µM [falling, partial curve]",
Cn1nnnc1Sc1ccc([N+](=O)[O-])cc1Cl,,"11.2 µM [rising, partial curve]"
Nc1ccccc1Sc1ccc(C(F)(F)F)cc1[N+](=O)[O-],,"0.00447 µM [falling, full curve, poor fit]"
O=C(c1cccc(S(=O)(=O)NCc2ccccc2)c1)N1CCN(Cc2ccccc2)CC1,,"15.8 µM [rising, single point]"
CCOC(=O)C1C(=O)NC(N2CCc3ccccc32)=NC1c1ccccc1 (configuration not stated),,"3.16 µM [rising, partial curve, poor fit]"
O=C(Nc1ccccc1F)C(=Cc1sc(N2CCOCC2)nc1-c1ccccc1)C(=O)Nc1ccccc1F,,"2.82 µM [rising, full curve, poor fit]"
COc1ccc2c(c1)c(CC(=O)Nc1cc(C)ccc1C)c(C)n2C(=O)c1ccc(Cl)cc1,,"5.62 µM [rising, single point]"
Cc1ccc(-n2nnnc2SCC(=O)Nc2cccc(NC(=O)c3ccco3)c2)cc1C,,"5.62 µM [falling, single point]"
CN(Cc1ccccc1)S(=O)(=O)c1nnc(NC(=O)c2ccccc2Cl)s1,,"3.55 µM [rising, full curve, poor fit]"
Cc1ccc(/C=C/C(=O)c2c(C)cc(C)[nH]c2=O)cc1,"12.6 µM [falling, partial curve]","22.4 µM [falling, single point]"
CCCCN(c1ccccc1)c1ncnc(N)c1[N+](=O)[O-],,"5.62 µM [falling, partial curve, poor fit]"
COc1cccc(/C=N/n2c(SC)nnc2-c2ccccc2)c1O,,"12.6 µM [rising, single point]"
COc1ccc(-c2nc(Cn3c(=O)cc(-c4ccccc4)c4c(C)nn(C)c43)c(C)o2)cc1OC,,"0.0562 µM [rising, full curve, poor fit]"
Cc1nccc(-c2ccc(-n3c(C)ccc3C)cc2)n1,"35.5 µM [rising, single point]","35.5 µM [rising, single point]"
